{"source": "the supplement of paper PMC8728848", "binders": {"B1": {"name": "FGF1 (Homo sapiens), P05230 (protein)", "chain": "MAEGEITTFTALTEKFNLPPGNYKKPKLLYSNGGHFLRILPDGTVDGTRDRSDQHIQLQLSAESVGEVYIKSTETGQYLAMTDGLLYGSQTPNEECLFLERLEENHYNTYISKHAEKNWFVGLKKNGSCKRGPRTHYGQAILFLPLPASSED"}}, "assay_in_all_cases": "glycan array binding signal (z-score within array); higher = stronger binding", "conditions_in_all_cases": "glycan notation: IUPAC condensed, linker removed", "key": {"[1]": {"biological_target": "Gal(b1-4)GlcNAc(b1-3)Gal(b1-4)GlcNAc(b1-3)Gal(b1-4)GlcNAc(b1-3)Gal(b1-4)GlcNAc(b1-2)Man(a1-3)[Gal(b1-4)GlcNAc(b1-3)Gal(b1-4)GlcNAc(b1-3)Gal(b1-4)GlcNAc(b1-3)Gal(b1-4)GlcNAc(b1-2)Man(a1-6)]Man(b1-4)GlcNAc(b1-4)GlcNAc", "procedure,_shortened": "(§1)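 Glycan array data came from 3228 arrays in the Consortium for Functional Glycomics database, and only arrays with an available protein sequence were kept. Glycan names were put into IUPAC-condensed notation, and columns mapping to the same glycan were averaged. The binding signal is a within-array Z-score, averaged across arrays of one protein sequence run at different concentrations or buffers and across linkers. A negative Z-score can be read as non-binding.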"}, "[2]": {"biological_target": "Gal(b1-4)GlcNAc(b1-3)Gal(b1-4)GlcNAc(b1-3)Gal(b1-4)GlcNAc(b1-3)Gal(b1-4)GlcNAc(b1-2)Man(a1-3)[Gal(b1-4)GlcNAc(b1-3)Gal(b1-4)GlcNAc(b1-3)Gal(b1-4)GlcNAc(b1-3)Gal(b1-4)GlcNAc(b1-2)Man(a1-6)]Man(b1-4)GlcNAc(b1-4)[Fuc(a1-6)]GlcNAc", "procedure,_shortened": "as §1"}, "[3]": {"biological_target": "Gal(b1-4)GlcNAc(b1-3)Gal(b1-4)GlcNAc(b1-3)Gal(b1-4)GlcNAc(b1-3)Gal(b1-4)GlcNAc(b1-2)[Gal(b1-4)GlcNAc(b1-3)Gal(b1-4)GlcNAc(b1-3)Gal(b1-4)GlcNAc(b1-3)Gal(b1-4)GlcNAc(b1-6)]Man(a1-6)[Gal(b1-4)GlcNAc(b1-3)Gal(b1-4)GlcNAc(b1-3)Gal(b1-4)GlcNAc(b1-3)Gal(b1-4)GlcNAc(b1-2)Man(a1-3)]Man(b1-4)GlcNAc(b1-4)[Fuc(a1-6)]GlcNAc", "procedure,_shortened": "as §1"}, "[4]": {"biological_target": "Gal(b1-4)GlcNAc(b1-3)Gal(b1-4)GlcNAc(b1-3)Gal(b1-4)GlcNAc(b1-3)Gal(b1-4)GlcNAc(b1-3)Gal(b1-4)GlcNAc(b1-2)Man(a1-3)[Gal(b1-4)GlcNAc(b1-3)Gal(b1-4)GlcNAc(b1-3)Gal(b1-4)GlcNAc(b1-3)Gal(b1-4)GlcNAc(b1-3)Gal(b1-4)GlcNAc(b1-2)Man(a1-6)]Man(b1-4)GlcNAc(b1-4)GlcNAc", "procedure,_shortened": "as §1"}, "[5]": {"biological_target": "Gal(b1-4)GlcNAc(b1-3)Gal(b1-4)GlcNAc(b1-3)Gal(b1-4)GlcNAc(b1-3)Gal(b1-4)GlcNAc(b1-3)Gal(b1-4)GlcNAc(b1-2)Man(a1-3)[Gal(b1-4)GlcNAc(b1-3)Gal(b1-4)GlcNAc(b1-3)Gal(b1-4)GlcNAc(b1-3)Gal(b1-4)GlcNAc(b1-3)Gal(b1-4)GlcNAc(b1-2)Man(a1-6)]Man(b1-4)GlcNAc(b1-4)[Fuc(a1-6)]GlcNAc", "procedure,_shortened": "as §1"}, "[6]": {"biological_target": "Gal(b1-4)GlcNAc(b1-3)Gal(b1-4)GlcNAc(b1-3)Gal(b1-4)GlcNAc(b1-3)Gal(b1-4)GlcNAc(b1-3)Gal(b1-4)GlcNAc(b1-2)[Gal(b1-4)GlcNAc(b1-3)Gal(b1-4)GlcNAc(b1-3)Gal(b1-4)GlcNAc(b1-3)Gal(b1-4)GlcNAc(b1-3)Gal(b1-4)GlcNAc(b1-6)]Man(a1-6)[Gal(b1-4)GlcNAc(b1-3)Gal(b1-4)GlcNAc(b1-3)Gal(b1-4)GlcNAc(b1-3)Gal(b1-4)GlcNAc(b1-3)Gal(b1-4)GlcNAc(b1-2)Man(a1-3)]Man(b1-4)GlcNAc(b1-4)[Fuc(a1-6)]GlcNAc", "procedure,_shortened": "as §1"}, "[7]": {"biological_target": "Gal(b1-4)GlcNAc(b1-3)Gal(b1-4)GlcNAc(b1-3)Gal(b1-4)GlcNAc(b1-3)Gal(b1-4)GlcNAc(b1-3)Gal(b1-4)GlcNAc(b1-3)Gal(b1-4)GlcNAc(b1-2)Man(a1-3)[Gal(b1-4)GlcNAc(b1-3)Gal(b1-4)GlcNAc(b1-3)Gal(b1-4)GlcNAc(b1-3)Gal(b1-4)GlcNAc(b1-3)Gal(b1-4)GlcNAc(b1-3)Gal(b1-4)GlcNAc(b1-2)Man(a1-6)]Man(b1-4)GlcNAc(b1-4)GlcNAc", "procedure,_shortened": "as §1"}, "[8]": {"biological_target": "Gal(b1-4)GlcNAc(b1-3)Gal(b1-4)GlcNAc(b1-3)GalNAc", "procedure,_shortened": "as §1"}, "[9]": {"biological_target": "Gal(b1-4)GlcNAc(b1-3)Gal(b1-4)GlcNAc(b1-3)[Gal(b1-4)GlcNAc(b1-3)Gal(b1-4)GlcNAc(b1-6)]GalNAc", "procedure,_shortened": "as §1"}, "[10]": {"biological_target": "Gal(b1-4)GlcNAc(b1-3)Gal(b1-4)GlcNAc(b1-6)[Gal(b1-3)]GalNAc", "procedure,_shortened": "as §1"}, "[11]": {"biological_target": "Gal(b1-4)GlcNAc(b1-3)Gal(b1-4)[Fuc(a1-3)]GlcNAc(b1-3)Gal(b1-4)[Fuc(a1-3)]GlcNAc", "procedure,_shortened": "as §1"}, "[12]": {"biological_target": "Gal(b1-4)GlcNAc(b1-3)GalNAc", "procedure,_shortened": "as §1"}, "[13]": {"biological_target": "Gal(b1-4)GlcNAc(b1-3)[Fuc(a1-3)GlcNAc(b1-6)]Gal(b1-4)Glc", "procedure,_shortened": "as §1"}, "[14]": {"biological_target": "Gal(b1-4)GlcNAc(b1-3)[Gal(b1-4)GlcNAc(b1-6)]Gal(b1-4)GlcNAc", "procedure,_shortened": "as §1"}, "[15]": {"biological_target": "Gal(b1-4)GlcNAc(b1-3)[GlcNAc(b1-6)]Gal(b1-4)GlcNAc", "procedure,_shortened": "as §1"}, "[16]": {"biological_target": "Gal(b1-4)GlcNAc(b1-6)Gal(b1-4)GlcNAc", "procedure,_shortened": "as §1"}, "[17]": {"biological_target": "Gal(b1-4)GlcNAc(b1-6)GalNAc", "procedure,_shortened": "as §1"}, "[18]": {"biological_target": "Gal(b1-4)GlcNAc(b1-6)[Gal(b1-3)]GalNAc", "procedure,_shortened": "as §1"}, "[19]": {"biological_target": "Gal(b1-4)GlcNAc(b1-6)[Gal(b1-4)GlcNAc(b1-3)]GalNAc", "procedure,_shortened": "as §1"}, "Gal(b1-4)GlcNAc6P": {"biological_target": "Gal(b1-4)GlcNAc6P", "procedure,_shortened": "as §1"}, "Gal(b1-6)Gal": {"biological_target": "Gal(b1-6)Gal", "procedure,_shortened": "as §1"}, "Gal3S(b1-3)GalNAc": {"biological_target": "Gal3S(b1-3)GalNAc", "procedure,_shortened": "as §1"}, "Gal3S(b1-3)GlcNAc": {"biological_target": "Gal3S(b1-3)GlcNAc", "procedure,_shortened": "as §1"}}, "note": "The list shows a part of the results."}
{"binder": "B1", "values": [{"measurement": "glycan array binding signal (z-score)", "setting": "[1]", "result": -0.604}, {"measurement": "glycan array binding signal (z-score)", "setting": "[2]", "result": 1.05}, {"measurement": "glycan array binding signal (z-score)", "setting": "[3]", "result": 0.166}, {"measurement": "glycan array binding signal (z-score)", "setting": "[4]", "result": 0.491}, {"measurement": "glycan array binding signal (z-score)", "setting": "[5]", "result": -0.647}, {"measurement": "glycan array binding signal (z-score)", "setting": "[6]", "result": -0.541}, {"measurement": "glycan array binding signal (z-score)", "setting": "[7]", "result": -0.34}, {"measurement": "glycan array binding signal (z-score)", "setting": "[8]", "result": 1.62}, {"measurement": "glycan array binding signal (z-score)", "setting": "[9]", "result": 1.64}, {"measurement": "glycan array binding signal (z-score)", "setting": "[10]", "result": 0.693}, {"measurement": "glycan array binding signal (z-score)", "setting": "[11]", "result": -0.238}, {"measurement": "glycan array binding signal (z-score)", "setting": "[12]", "result": -0.873}, {"measurement": "glycan array binding signal (z-score)", "setting": "[13]", "result": -0.581}, {"measurement": "glycan array binding signal (z-score)", "setting": "[14]", "result": -0.917}, {"measurement": "glycan array binding signal (z-score)", "setting": "[15]", "result": 0.09}, {"measurement": "glycan array binding signal (z-score)", "setting": "[16]", "result": -1.19}, {"measurement": "glycan array binding signal (z-score)", "setting": "[17]", "result": 0.099}, {"measurement": "glycan array binding signal (z-score)", "setting": "[18]", "result": -0.192}, {"measurement": "glycan array binding signal (z-score)", "setting": "[19]", "result": 1.81}, {"measurement": "glycan array binding signal (z-score)", "setting": "Gal(b1-4)GlcNAc6P", "result": -1.05}, {"measurement": "glycan array binding signal (z-score)", "setting": "Gal(b1-6)Gal", "result": 0.671}, {"measurement": "glycan array binding signal (z-score)", "setting": "Gal3S(b1-3)GalNAc", "result": 0.468}, {"measurement": "glycan array binding signal (z-score)", "setting": "Gal3S(b1-3)GlcNAc", "result": 1.54}]}
